{
  "source": "patent US8426202B2",
  "about": "“Cell culture medium” (Cellca GmbH, priority 2005, dated 2013)",
  "system": "CHO cell line that expresses an antibody",
  "assay": "Fed-batch experiment with the substances according to the invention (Example 2, Table 2)",
  "type": "cell-based, Chinese hamster",
  "excerpt": "Feed took place at regular intervals.",
  "note": "Where “and” joins values, the source holds several entries; their conditions need not be identical. Equal entries are not always repeated.",
  "data": [
    {"smiles": "CC(=O)C(=O)[O-].[Na+]", "note": "[Sodium pyruvate]", "values": [
      {"measurement": "Glucose", "setting": "day 2, fed-batch", "result": 4.4, "unit": "g/L"},
      {"measurement": "Lactate", "setting": "day 2, fed-batch", "result": 0.27, "unit": "g/L"},
      {"measurement": "Glucose", "setting": "day 5, fed-batch", "result": 7.02, "unit": "g/L"},
      {"measurement": "Lactate", "setting": "day 5, fed-batch", "result": 1.2, "unit": "g/L"},
      {"measurement": "Glucose", "setting": "day 8, fed-batch", "result": 9.44, "unit": "g/L"},
      {"measurement": "Lactate", "setting": "day 8, fed-batch", "result": 1.8, "unit": "g/L"}
    ]},
    {"smiles": "NCCC[C@H](N)C(=O)O", "note": "[Ornithine]", "values": [
      {"measurement": "Glucose", "setting": "day 2, fed-batch", "result": "4.24 g/L and 4.26 g/L"},
      {"measurement": "Lactate", "setting": "day 2, fed-batch", "result": "0.46 g/L and 0.45 g/L"},
      {"measurement": "Glucose", "setting": "day 5, fed-batch", "result": "6.96 g/L and 6.9 g/L"},
      {"measurement": "Lactate", "setting": "day 5, fed-batch", "result": 1.03, "unit": "g/L"},
      {"measurement": "Glucose", "setting": "day 8, fed-batch", "result": "9.85 g/L and 9.72 g/L"},
      {"measurement": "Lactate", "setting": "day 8, fed-batch", "result": 1.23, "unit": "g/L"}
    ]},
    {"smiles": "O=C([O-])CCC(=O)[O-].[Na+].[Na+]", "note": "[Sodium succinate]", "values": [
      {"measurement": "Glucose", "setting": "day 2, fed-batch", "result": "3.91 g/L and 4.04 g/L"},
      {"measurement": "Lactate", "setting": "day 2, fed-batch", "result": "0.46 g/L and 0.47 g/L"},
      {"measurement": "Glucose", "setting": "day 5, fed-batch", "result": "6.27 g/L and 6.63 g/L"},
      {"measurement": "Lactate", "setting": "day 5, fed-batch", "result": "1.15 g/L and 1.18 g/L"},
      {"measurement": "Glucose", "setting": "day 8, fed-batch", "result": "8.44 g/L and 8.98 g/L"},
      {"measurement": "Lactate", "setting": "day 8, fed-batch", "result": "1.34 g/L and 1.42 g/L"}
    ]},
    {"smiles": "O=C([O-])/C=C/C(=O)[O-].[Na+].[Na+]", "note": "[Sodium fumarate]", "values": [
      {"measurement": "Glucose", "setting": "day 2, fed-batch", "result": "4.14 g/L and 4.17 g/L"},
      {"measurement": "Lactate", "setting": "day 2, fed-batch", "result": 0.44, "unit": "g/L"},
      {"measurement": "Glucose", "setting": "day 5, fed-batch", "result": "6.79 g/L and 6.75 g/L"},
      {"measurement": "Lactate", "setting": "day 5, fed-batch", "result": "1.13 g/L and 1.12 g/L"},
      {"measurement": "Glucose", "setting": "day 8, fed-batch", "result": "9.46 g/L and 9.32 g/L"},
      {"measurement": "Lactate", "setting": "day 8, fed-batch", "result": "1.39 g/L and 1.38 g/L"}
    ]},
    {"smiles": "O=C(O)C(O)C(O)C(=O)O", "note": "(stereo not drawn) [Tartaric acid]", "values": [
      {"measurement": "Glucose", "setting": "day 2, fed-batch", "result": "4.37 g/L and 4.39 g/L"},
      {"measurement": "Lactate", "setting": "day 2, fed-batch", "result": "0.32 g/L and 0.3 g/L"},
      {"measurement": "Glucose", "setting": "day 5, fed-batch", "result": "7.69 g/L and 7.34 g/L"},
      {"measurement": "Lactate", "setting": "day 5, fed-batch", "result": "0.51 g/L and 0.5 g/L"},
      {"measurement": "Glucose", "setting": "day 8, fed-batch", "result": "11.22 g/L and 10.34 g/L"},
      {"measurement": "Lactate", "setting": "day 8, fed-batch", "result": "0.69 g/L and 0.68 g/L"}
    ]},
    {"smiles": "O=C(O)CCCCC(=O)O", "note": "[Adipic acid]", "values": [
      {"measurement": "Glucose", "setting": "day 2, fed-batch", "result": "4.2 g/L and 4.22 g/L"},
      {"measurement": "Lactate", "setting": "day 2, fed-batch", "result": 0.42, "unit": "g/L"},
      {"measurement": "Glucose", "setting": "day 5, fed-batch", "result": "7.33 g/L and 7.26 g/L"},
      {"measurement": "Lactate", "setting": "day 5, fed-batch", "result": 0.88, "unit": "g/L"},
      {"measurement": "Glucose", "setting": "day 8, fed-batch", "result": "10.89 g/L and 10.65 g/L"},
      {"measurement": "Lactate", "setting": "day 8, fed-batch", "result": "1.1 g/L and 1.12 g/L"}
    ]},
    {"smiles": "CC(O)C(=O)[O-].[Na+]", "note": "(stereo not drawn) [Sodium lactate]", "values": [
      {"measurement": "Glucose", "setting": "day 2, fed-batch", "result": "4.32 g/L and 4.34 g/L"},
      {"measurement": "Lactate", "setting": "day 2, fed-batch", "result": 0.93, "unit": "g/L"},
      {"measurement": "Glucose", "setting": "day 5, fed-batch", "result": "7.03 g/L and 7.02 g/L"},
      {"measurement": "Lactate", "setting": "day 5, fed-batch", "result": "1.47 g/L and 1.45 g/L"},
      {"measurement": "Glucose", "setting": "day 8, fed-batch", "result": "9.52 g/L and 9.45 g/L"},
      {"measurement": "Lactate", "setting": "day 8, fed-batch", "result": "1.75 g/L and 1.73 g/L"}
    ]},
    {"smiles": "O=C(O)CC(O)C(=O)O", "note": "(stereo not drawn) [Malic acid]", "values": [
      {"measurement": "Glucose", "setting": "day 2, fed-batch", "result": "4.09 g/L and 4.1 g/L"},
      {"measurement": "Lactate", "setting": "day 2, fed-batch", "result": 0.45, "unit": "g/L"},
      {"measurement": "Glucose", "setting": "day 5, fed-batch", "result": "6.6 g/L and 6.7 g/L"},
      {"measurement": "Lactate", "setting": "day 5, fed-batch", "result": "1.1 g/L and 1.09 g/L"},
      {"measurement": "Glucose", "setting": "day 8, fed-batch", "result": "9.2 g/L and 9.38 g/L"},
      {"measurement": "Lactate", "setting": "day 8, fed-batch", "result": 1.32, "unit": "g/L"}
    ]},
    {"smiles": "O=C(O)CCC(=O)C(=O)O", "note": "[α-Keto-glutarate]", "values": [
      {"measurement": "Glucose", "setting": "day 2, fed-batch", "result": "4.25 g/L and 4.26 g/L"},
      {"measurement": "Lactate", "setting": "day 2, fed-batch", "result": "0.34 g/L and 0.33 g/L"},
      {"measurement": "Glucose", "setting": "day 5, fed-batch", "result": 7.15, "unit": "g/L"},
      {"measurement": "Lactate", "setting": "day 5, fed-batch", "result": 0.76, "unit": "g/L"},
      {"measurement": "Glucose", "setting": "day 8, fed-batch", "result": 9.75, "unit": "g/L"},
      {"measurement": "Lactate", "setting": "day 8, fed-batch", "result": 1.06, "unit": "g/L"}
    ]}
  ]
}
